This experiment deals with Male Sprague-Dawley rats. The conditions noted are these: s.c. immediately after the sampling phase, three-hour delay.

For the molecule `CN1[C@@H]2C[C@@H](OC(=O)[C@H](CO)c3ccccc3)C[C@H]1[C@@H]1O[C@@H]12` [Scopolamine, scopolamine], the retention entry was “disrupted retention”.
